The record followed here is paper PMC10639050, “ZNF432 stimulates PARylation and inhibits DNA resection to balance PARPi sensitivity and resistance”.

Chains of the proteins cited; added tags and fusions are not shown. Lines headed by an entry give the natural chain unless they say otherwise; changes in a name come on top.
UniProt O94892: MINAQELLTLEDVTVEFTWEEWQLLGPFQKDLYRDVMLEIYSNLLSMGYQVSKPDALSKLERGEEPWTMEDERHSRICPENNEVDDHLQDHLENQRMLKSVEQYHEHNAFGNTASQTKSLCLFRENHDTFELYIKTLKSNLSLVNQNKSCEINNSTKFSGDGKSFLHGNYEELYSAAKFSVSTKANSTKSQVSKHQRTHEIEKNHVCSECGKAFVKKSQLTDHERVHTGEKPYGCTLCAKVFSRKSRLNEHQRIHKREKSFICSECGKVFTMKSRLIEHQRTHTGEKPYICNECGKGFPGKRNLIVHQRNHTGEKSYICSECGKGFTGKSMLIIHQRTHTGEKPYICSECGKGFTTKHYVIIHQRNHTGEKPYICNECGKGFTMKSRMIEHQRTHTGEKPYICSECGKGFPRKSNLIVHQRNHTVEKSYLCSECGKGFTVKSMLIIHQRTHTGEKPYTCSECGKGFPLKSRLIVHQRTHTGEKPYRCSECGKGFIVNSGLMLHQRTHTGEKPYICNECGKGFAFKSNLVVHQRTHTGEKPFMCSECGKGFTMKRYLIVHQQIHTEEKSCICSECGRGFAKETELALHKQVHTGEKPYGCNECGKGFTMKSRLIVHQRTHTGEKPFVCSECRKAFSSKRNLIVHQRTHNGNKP

The target in data set [1] is ZNF432 full-length (Homo sapiens) (UniProt O94892). In words: competition with a labelled probe. To be noted: dsDNA in competition with labeled ssDNA probe, ssDNA preferred, glutaraldehyde fixation; 25 mM MOPS pH 7.0, 60 mM KCl, 0.2% Tween, 2 mM DTT; 1 mM without fixation for Kd), 37 C 30 min; recombinant protein; residues 1-652; protein details: C-terminal 10xHis (GST removed with PreScission); label: 32P (gamma-32P).

Data set [2] shares this target. In words: EMSA. To be noted: glutaraldehyde fixation, binds, but less strongly than ssDNA; 25 mM MOPS pH 7.0, 60 mM KCl, 0.2% Tween, 2 mM DTT; 1 mM without fixation for Kd), 37 C 30 min; recombinant protein; residues 1-652; protein details: C-terminal 10xHis (GST removed with PreScission); label: 32P (gamma-32P). (In general: A gel shift assay detects complexes by their altered migration in electrophoresis.)

Weaker means in comparison with the reference protein, sequence or condition of that experiment.

In the case of “GGGCGAATTGGGCCCGACGTCGCATGCTCCTCTAGACTCGAGGAATTCGGTACCCCGGGTTCGAAATCGATAAGCTTACAGTCTCCATTTAAAGGACAAG (double strand) [Double-stranded DNA]”, the binding result in data set [1] and in data set [2] was “binds more weakly” throughout.
